# According to the supplement of paper PMC4604168 (melanoma cell lines):
# The list shows a part of the results. Many values rest on one well or one pass, so single values are uncertain.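 Imaging used 1,536-well plates; nuclei positive for cleaved PARP by antibody were divided by total DNA-stained nuclei to yield the apoptosis fraction. Doses for screening kept most cells viable, and cell lines differ markedly in resting and induced cleaved-PARP levels.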
# Experiments:
# Experiment in all cases: cleaved PARP positive nuclei fraction relative to DMSO control; melanoma cells; higher = more apoptosis
# Settings in all cases: library dose: low library concentration; 72 h
# MZ2-MEL = tested on: MZ2-MEL
# MeWo = tested on: MeWo
# RPMI7951 = tested on: RPMI7951
# RVH-421 = tested on: RVH-421
# SkMel28 = tested on: SkMel28
# SkMel2 = tested on: SkMel2
# SkMel30 = tested on: SkMel30
# UACC62 = tested on: UACC62
# SkMel5 = tested on: SkMel5
# UACC257 = tested on: UACC257
Compound,cleaved PARP positive nuclei fraction (MZ2-MEL),cleaved PARP positive nuclei fraction (MeWo),cleaved PARP positive nuclei fraction (RPMI7951),cleaved PARP positive nuclei fraction (RVH-421),cleaved PARP positive nuclei fraction (SkMel28),cleaved PARP positive nuclei fraction (SkMel2),cleaved PARP positive nuclei fraction (SkMel30),cleaved PARP positive nuclei fraction (UACC62),cleaved PARP positive nuclei fraction (SkMel5),cleaved PARP positive nuclei fraction (UACC257)
"C=CCNC1=C2C[C@@H](C)C[C@H](OC)[C@H](O)[C@@H](C)/C=C(\C)[C@H](OC(N)=O)[C@@H](OC)/C=C\C=C(/C)C(=O)NC(=CC1=O)C2=O [Tanespimycin] + OCc1c[nH]c2ccccc12 [Indole-3-carbinol] (first compound 0.002 µM, partner dose 0.8 µM)",124%,77.7%,218%,89.3%,74.3%,109%,91.2%,112%,,
"Cc1nc(Nc2ncc(C(=O)Nc3c(C)cccc3Cl)s2)cc(N2CCN(CCO)CC2)n1 [dasatanib] + Nc1cccc2c1CN(C1CCC(=O)NC1=O)C2=O [lenalidomide] (first compound 0.004 µM, partner dose 1 µM)",78.3%,127%,138%,136%,105%,62.9%,23.1%,102%,,
"Clc1ccc(Nc2nnc(Cc3ccncc3)c3ccccc23)cc1 [vatalanib] + Cc1nc(Nc2ncc(C(=O)Nc3c(C)cccc3Cl)s2)cc(N2CCN(CCO)CC2)n1 [dasatanib] (first compound 2 µM, partner dose 0.004 µM)",163%,123%,436%,99.5%,88.4%,135%,60.8%,181%,,
"Clc1ccc(Nc2nnc(Cc3ccncc3)c3ccccc23)cc1 [vatalanib] + C[C@]1(c2nc3c(C(N)=O)cccc3[nH]2)CCCN1 [Veliparib] (first compound 2 µM, partner dose 1.4 µM)",72.9%,41.7%,53.4%,117%,83.9%,99.5%,32.5%,57.3%,,
"CC1(C)NC(=O)N(c2ccc([N+](=O)[O-])c(C(F)(F)F)c2)C1=O [nilutamide] + O=C(O)C(=O)Nc1sc2c(c1C(=O)O)CCNC2 [TCS401] (first compound 1 µM, partner dose 1.66667 µM)",86.8%,112%,81%,30.9%,150%,,29.3%,129%,112%,51%
"C=CCNC1=C2C[C@@H](C)C[C@H](OC)[C@H](O)[C@@H](C)/C=C(\C)[C@H](OC(N)=O)[C@@H](OC)/C=C\C=C(/C)C(=O)NC(=CC1=O)C2=O [Tanespimycin] + Cc1nc(Nc2ncc(C(=O)Nc3c(C)cccc3Cl)s2)cc(N2CCN(CCO)CC2)n1 [dasatanib] (first compound 0.002 µM, partner dose 0.004 µM)",56.7%,180%,75.5%,116%,69.4%,168%,65.6%,61.1%,,
"CC(=O)c1c(C)c2cnc(Nc3ccc(N4CCNCC4)cn3)nc2n(C2CCCC2)c1=O [palbociclib] + Clc1ccc(Nc2nnc(Cc3ccncc3)c3ccccc23)cc1 [vatalanib] (first compound 0.04 µM, partner dose 2 µM)",29.2%,89.5%,60%,79.2%,97.6%,179%,100%,128%,,
"CC(=O)c1c(C)c2cnc(Nc3ccc(N4CCNCC4)cn3)nc2n(C2CCCC2)c1=O [palbociclib] + Cn1c(Nc2ccc(C(F)(F)F)cc2)nc2cc(Oc3ccnc(-c4ncc(C(F)(F)F)[nH]4)c3)ccc21 [CHIR265] (first compound 0.04 µM, partner dose 0.08 µM)",32.5%,176%,199%,84.4%,62.7%,74.9%,202%,618%,,
"Cc1cc(N2CCOCC2)cc2[nH]c(-c3c(NC[C@@H](O)c4cccc(Cl)c4)cc[nH]c3=O)nc12 + O=c1cc(-c2cccc3c2Sc2ccccc2S3)oc(N2CCOCC2)c1 [KU55933] (first compound 0.2 µM, partner dose 1 µM)",164%,41.8%,91.4%,95.7%,159%,,66.6%,135%,30.7%,95.7%
"Clc1ccc(Nc2nnc(Cc3ccncc3)c3ccccc23)cc1 [vatalanib] + COc1ccc(Cl)c(Nc2nc3ccccc3nc2NS(=O)(=O)c2cccc(NC(=O)C(C)(C)N)c2)c1 [XL147] (first compound 2 µM, partner dose 0.8 µM)",40.2%,202%,36.9%,122%,54%,132%,238%,199%,,
"OCc1c[nH]c2ccccc12 [Indole-3-carbinol] + Nc1cccc2c1CN(C1CCC(=O)NC1=O)C2=O [lenalidomide] (first compound 0.8 µM, partner dose 1 µM)",74.1%,50.5%,41.3%,81.6%,43.1%,135%,36.6%,58.7%,,
"Clc1ccc(Nc2nnc(Cc3ccncc3)c3ccccc23)cc1 [vatalanib] + C#Cc1cccc(Nc2ncnc3cc(OCCOC)c(OCCOC)cc23)c1 [erlotinib] (first compound 2 µM, partner dose 0.8 µM)",78.8%,25.9%,184%,126%,90%,75%,125%,126%,,
"C[C@@H]1CCN(C(=O)CC#N)C[C@@H]1N(C)c1ncnc2[nH]ccc12 + Cn1cc(/C=C2\C(=O)Nc3cccnc32)c2ccccc21 [GW441756] (first compound 1 µM, partner dose 0.4 µM)",102%,112%,255%,69.3%,87.7%,,176%,158%,57.9%,53.5%
"COCC[n+]1c2c(n(Cc3cnccn3)c1C)C(=O)c1ccccc1C2=O + COC(=O)c1sccc1S(=O)(=O)Nc1ccc(Nc2ccccc2)cc1OC [GSK0660] (first compound 0.0004 µM, partner dose 1 µM)",136%,90.2%,126%,77.4%,108%,,610%,358%,78.8%,45.5%
"Cc1nc(Nc2ncc(C(=O)Nc3c(C)cccc3Cl)s2)cc(N2CCN(CCO)CC2)n1 [dasatanib] + COCC[n+]1c2c(n(Cc3cnccn3)c1C)C(=O)c1ccccc1C2=O [YM155] (first compound 0.004 µM, partner dose 0.0004 µM)",162%,84.7%,476%,95.1%,96.7%,165%,67.7%,139%,,
"CC1(C)NC(=O)N(c2ccc([N+](=O)[O-])c(C(F)(F)F)c2)C1=O [nilutamide] + Cc1cc([N+](=O)[O-])ccc1NS(=O)(=O)c1cc(Cl)ccc1Cl [FH535] (first compound 1 µM, partner dose 1 µM)",61.5%,27.5%,67.4%,90.8%,147%,,24.4%,124%,139%,27.8%
"CC(=O)c1c(C)c2cnc(Nc3ccc(N4CCNCC4)cn3)nc2n(C2CCCC2)c1=O [palbociclib] + OCc1c[nH]c2ccccc12 [Indole-3-carbinol] (first compound 0.04 µM, partner dose 0.8 µM)",62.8%,54.7%,146%,82.8%,101%,165%,120%,124%,,
"C=CCNC1=C2C[C@@H](C)C[C@H](OC)[C@H](O)[C@@H](C)/C=C(\C)[C@H](OC(N)=O)[C@@H](OC)/C=C\C=C(/C)C(=O)NC(=CC1=O)C2=O [Tanespimycin] + Nc1cccc2c1CN(C1CCC(=O)NC1=O)C2=O [lenalidomide] (first compound 0.002 µM, partner dose 1 µM)",125%,116%,154%,73.7%,183%,112%,72.2%,134%,,
"COCC[n+]1c2c(n(Cc3cnccn3)c1C)C(=O)c1ccccc1C2=O + O=c1cc(-c2cccc3c2Sc2ccccc2S3)oc(N2CCOCC2)c1 [KU55933] (first compound 0.0004 µM, partner dose 1 µM)",210%,112%,218%,45.4%,103%,,14.5%,79.2%,76%,99.8%
"Clc1ccc(Nc2nnc(Cc3ccncc3)c3ccccc23)cc1 [vatalanib] + COCC[n+]1c2c(n(Cc3cnccn3)c1C)C(=O)c1ccccc1C2=O [YM155] (first compound 2 µM, partner dose 0.0004 µM)",62.3%,795%,53.1%,181%,40.3%,68.1%,27.9%,123%,,
"COCC[n+]1c2c(n(Cc3cnccn3)c1C)C(=O)c1ccccc1C2=O + Cn1nnc2c(C(N)=O)ncn2c1=O [temozolomide] (first compound 0.0004 µM, partner dose 2 µM)",385%,126%,130%,147%,122%,272%,147%,50.4%,,
"C=CCNC1=C2C[C@@H](C)C[C@H](OC)[C@H](O)[C@@H](C)/C=C(\C)[C@H](OC(N)=O)[C@@H](OC)/C=C\C=C(/C)C(=O)NC(=CC1=O)C2=O [Tanespimycin] + COCC[n+]1c2c(n(Cc3cnccn3)c1C)C(=O)c1ccccc1C2=O [YM155] (first compound 0.002 µM, partner dose 0.0004 µM)",172%,58.9%,21.3%,94.4%,79.3%,105%,49.8%,43.9%,,
"C#Cc1cccc(Nc2ncnc3cc(OCCOC)c(OCCOC)cc23)c1 [erlotinib] + COCC[n+]1c2c(n(Cc3cnccn3)c1C)C(=O)c1ccccc1C2=O [YM155] (first compound 0.8 µM, partner dose 0.0004 µM)",390%,124%,136%,105%,76.8%,158%,73.1%,85%,,
"C=CCn1c(=O)c2cnc(Nc3ccc(N4CCN(C)CC4)cc3)nc2n1-c1cccc(C(C)(C)O)n1 + O=C(Nc1ccccc1)c1cc([N+](=O)[O-])ccc1Cl [GW9662] (first compound 0.02 µM, partner dose 2 µM)",90.3%,110%,38.5%,48.7%,140%,,20.8%,209%,62.9%,137%

# Quoted at random: two entries already listed, in no set order.
Compound,cleaved PARP positive nuclei fraction (MZ2-MEL),cleaved PARP positive nuclei fraction (MeWo),cleaved PARP positive nuclei fraction (RPMI7951),cleaved PARP positive nuclei fraction (RVH-421),cleaved PARP positive nuclei fraction (SkMel28),cleaved PARP positive nuclei fraction (SkMel2),cleaved PARP positive nuclei fraction (SkMel30),cleaved PARP positive nuclei fraction (UACC62),cleaved PARP positive nuclei fraction (SkMel5),cleaved PARP positive nuclei fraction (UACC257)
"C#Cc1cccc(Nc2ncnc3cc(OCCOC)c(OCCOC)cc23)c1 [erlotinib] + COCC[n+]1c2c(n(Cc3cnccn3)c1C)C(=O)c1ccccc1C2=O [YM155] (first compound 0.8 µM, partner dose 0.0004 µM)",390%,124%,136%,105%,76.8%,158%,73.1%,85%,,
"COCC[n+]1c2c(n(Cc3cnccn3)c1C)C(=O)c1ccccc1C2=O + COC(=O)c1sccc1S(=O)(=O)Nc1ccc(Nc2ccccc2)cc1OC [GSK0660] (first compound 0.0004 µM, partner dose 1 µM)",136%,90.2%,126%,77.4%,108%,,610%,358%,78.8%,45.5%
